Data taken from US20210163976A1, “GENETICALLY ALTERED PLANTS EXPRESSING HETEROLOGOUS RECEPTORS THAT RECOGNIZE LIPO-CHITOOLIGOSACCHARIDES” (Aarhus Universitet, priority 2018, published 2021).
At least one compound was matched to its structure with a doubt left.

The chains behind the UniProt entries cited, without tags or fusion partners. Where a name states a change or a piece, a line headed by the entry shows the natural chain unless it says otherwise. Residues count along the entry.
UniProt Q0GXS4, 28-246: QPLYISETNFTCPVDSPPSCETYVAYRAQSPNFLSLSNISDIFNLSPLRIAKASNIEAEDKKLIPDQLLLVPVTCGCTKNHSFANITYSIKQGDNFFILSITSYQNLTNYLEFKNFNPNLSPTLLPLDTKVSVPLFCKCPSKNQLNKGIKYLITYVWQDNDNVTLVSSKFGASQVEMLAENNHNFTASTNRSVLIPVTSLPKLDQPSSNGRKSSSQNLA

Molecular target: T1, Medicago truncatula NFP ectodomain (NFP-ECD, residues 28-246), wild type, SEQ ID NO: 1 (Medicago truncatula, UniProt Q0GXS4)
T1 construct: The Medicago truncatula NFP ectodomain (residues 28-246); AcMNPV gp67 signal peptide (replaces native signal peptide 1-27) (N); hexa-histidine tag (C); made in house; host or cells: Sf9 cells (Spodoptera frugiperda), baculovirus
Assay: Biolayer interferometry (BLI) binding of NFP / NFP-ECD to immobilized LCO and CO ligands
Conditions: FIGS. 15D-15E
Protocol: Expression and purification of Medicago NFP ectodomain: The Medicago truncatula NFP ectodomain (residues 28-246) was codon-optimized for insect cell expression (Genscript, Piscataway, USA) and cloned into the pOET4 baculovirus transfer vector (Oxford Expression Technologies). The native NFP signal peptide (residues 1-27, predicted by SignalP 4.1) was replaced with the AcMNPV gp67 signal peptide to facilitate secretion and a hexa-histidine tag was added to the C-terminus. Point mutants of NFP were engineered using site-directed mutagenesis. Recombinant baculoviruses were produced in Sf9 cells (Spodoptera frugiperda) using the FlashBac Gold kit (Oxford Expression technologies) according to the manufacturer's instructions with Lipofectin (ThermoFisher Scientific) as a transfection reagent. Protein expression was performed as follows. […]
Biolayer interferometry (BLI): Binding of NFP and mutated versions of NFP to ligands was measured on an Octet RED 96 system (Pall ForteBio). […] Equilibrium dissociation constants derived from the steady-state were determined by applying a non-linear regression (one site, specific binding) to the response at equilibrium plotted against the protein concentration. Kinetic parameters were determined by non-linear regression (association followed by dissociation) on the subtracted data. […]

Row | SMILES | Fold reduction of binding to NFP-ECD compared to wild type S. meliloti LCO-IV
1 | CCCCCC/C=C\CCCCC/C=C/C(=O)N[C@H]1[C@H](O[C@H]2[C@H](O)[C@@H](NC(C)=O)[C@H](O[C@H]3[C@H](O)[C@@H](NC(C)=O)[C@H](O[C@H]4[C@H](O)[C@@H](NC(C)=O)C(O)O[C@@H]4COS(=O)(=O)O)O[C@@H]3CO)O[C@@H]2CO)O[C@H](CO)[C@@H](O)[C@@H]1O (some centres unmarked) [nodL-LCO-IV] | more than 10 fold
2 | CCCCCC/C=C\CCCCC/C=C/C(=O)N[C@H]1[C@H](O[C@H]2[C@H](O)[C@@H](NC(C)=O)[C@H](O[C@H]3[C@H](O)[C@@H](NC(C)=O)[C@H](O[C@H]4[C@H](O)[C@@H](NC(C)=O)C(O)O[C@@H]4CO)O[C@@H]3CO)O[C@@H]2CO)O[C@H](COC(C)=O)[C@@H](O)[C@@H]1O (some centres unmarked) [nodH-LCO-IV] | more than 21 fold
